Results are given in words; binding and its absence hold for the method and conditions named. In cells and extracts the contact can be indirect. Some entries that bind do so weakly or less than the wild type.
Biological target: human S1R fused to the large split fragment of nanoluciferase (S1R^LgBiT) (human) (UniProt Q99720)
Assay: split reporter; NanoBiT in living HEK-293 S1R-KO cells stably expressing S1R-LgBiT and BiP-SmBiT; coelenterazine 400a, luminescence (RLU) on a CLARIOstar reader; cells treated with vehicle, S1R ligands (acute time course or 16 h) or BAPTA-AM (10 μM, 30 min)

Sequences of proteins named here, by UniProt entry; tags and fusion partners are left off. A change or cut given only in a name is not applied to a line headed by its entry. Residues count along the entry.
UniProt Q99720, residues 2-223: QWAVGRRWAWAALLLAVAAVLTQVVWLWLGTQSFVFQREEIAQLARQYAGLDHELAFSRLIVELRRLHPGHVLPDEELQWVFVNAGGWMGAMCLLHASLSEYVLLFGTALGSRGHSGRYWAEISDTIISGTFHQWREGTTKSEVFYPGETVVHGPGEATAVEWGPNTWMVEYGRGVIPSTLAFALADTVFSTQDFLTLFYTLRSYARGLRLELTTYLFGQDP
UniProt P11021, residues 19-653: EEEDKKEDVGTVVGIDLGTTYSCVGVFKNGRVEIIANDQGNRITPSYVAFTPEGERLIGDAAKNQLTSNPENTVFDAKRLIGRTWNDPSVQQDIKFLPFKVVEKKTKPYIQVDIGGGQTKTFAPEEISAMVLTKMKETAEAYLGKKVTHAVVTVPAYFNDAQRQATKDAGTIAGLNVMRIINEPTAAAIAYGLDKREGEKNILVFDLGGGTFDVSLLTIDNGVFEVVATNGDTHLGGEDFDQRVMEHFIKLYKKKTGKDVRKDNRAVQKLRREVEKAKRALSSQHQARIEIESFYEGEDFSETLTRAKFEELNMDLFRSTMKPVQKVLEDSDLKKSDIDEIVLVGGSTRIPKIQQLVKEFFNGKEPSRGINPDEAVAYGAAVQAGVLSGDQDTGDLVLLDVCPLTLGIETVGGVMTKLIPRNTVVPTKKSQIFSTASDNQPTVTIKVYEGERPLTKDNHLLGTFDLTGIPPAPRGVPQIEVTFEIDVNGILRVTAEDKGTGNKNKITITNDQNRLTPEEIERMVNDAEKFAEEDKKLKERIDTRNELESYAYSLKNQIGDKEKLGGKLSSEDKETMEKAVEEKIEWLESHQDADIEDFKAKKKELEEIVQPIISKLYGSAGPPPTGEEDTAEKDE

binding: binds
Substance: human BiP fused to the small split fragment of nanoluciferase (BiP^SmBiT) (from UniProt P11021 19-653)

Reference: publication PMC10251476
